Experimental data from the supplement of paper PMC10849652.
The other results are listed elsewhere or left out.

Chains of the proteins cited; added tags and fusions are not shown. Lines headed by an entry give the natural chain unless they say otherwise; changes in a name come on top.
UniProt P07199: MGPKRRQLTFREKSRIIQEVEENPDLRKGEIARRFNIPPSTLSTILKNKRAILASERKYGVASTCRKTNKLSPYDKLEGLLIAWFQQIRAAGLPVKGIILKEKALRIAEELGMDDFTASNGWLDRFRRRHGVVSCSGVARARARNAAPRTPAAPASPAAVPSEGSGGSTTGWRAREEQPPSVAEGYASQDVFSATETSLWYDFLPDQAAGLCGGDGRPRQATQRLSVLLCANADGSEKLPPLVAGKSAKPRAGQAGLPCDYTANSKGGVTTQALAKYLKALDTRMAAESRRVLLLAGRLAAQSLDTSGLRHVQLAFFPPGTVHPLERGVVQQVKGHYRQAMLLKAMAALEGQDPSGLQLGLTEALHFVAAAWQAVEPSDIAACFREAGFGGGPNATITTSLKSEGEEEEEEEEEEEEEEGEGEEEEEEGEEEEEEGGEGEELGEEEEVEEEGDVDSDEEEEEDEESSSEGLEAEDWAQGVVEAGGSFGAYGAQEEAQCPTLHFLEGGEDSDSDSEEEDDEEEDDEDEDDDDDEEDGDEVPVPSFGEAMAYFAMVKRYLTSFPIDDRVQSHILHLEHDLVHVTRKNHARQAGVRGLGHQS
UniProt A8MT69: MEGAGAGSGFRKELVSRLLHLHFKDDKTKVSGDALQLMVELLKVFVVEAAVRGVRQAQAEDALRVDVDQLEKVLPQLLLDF
UniProt Q76N32: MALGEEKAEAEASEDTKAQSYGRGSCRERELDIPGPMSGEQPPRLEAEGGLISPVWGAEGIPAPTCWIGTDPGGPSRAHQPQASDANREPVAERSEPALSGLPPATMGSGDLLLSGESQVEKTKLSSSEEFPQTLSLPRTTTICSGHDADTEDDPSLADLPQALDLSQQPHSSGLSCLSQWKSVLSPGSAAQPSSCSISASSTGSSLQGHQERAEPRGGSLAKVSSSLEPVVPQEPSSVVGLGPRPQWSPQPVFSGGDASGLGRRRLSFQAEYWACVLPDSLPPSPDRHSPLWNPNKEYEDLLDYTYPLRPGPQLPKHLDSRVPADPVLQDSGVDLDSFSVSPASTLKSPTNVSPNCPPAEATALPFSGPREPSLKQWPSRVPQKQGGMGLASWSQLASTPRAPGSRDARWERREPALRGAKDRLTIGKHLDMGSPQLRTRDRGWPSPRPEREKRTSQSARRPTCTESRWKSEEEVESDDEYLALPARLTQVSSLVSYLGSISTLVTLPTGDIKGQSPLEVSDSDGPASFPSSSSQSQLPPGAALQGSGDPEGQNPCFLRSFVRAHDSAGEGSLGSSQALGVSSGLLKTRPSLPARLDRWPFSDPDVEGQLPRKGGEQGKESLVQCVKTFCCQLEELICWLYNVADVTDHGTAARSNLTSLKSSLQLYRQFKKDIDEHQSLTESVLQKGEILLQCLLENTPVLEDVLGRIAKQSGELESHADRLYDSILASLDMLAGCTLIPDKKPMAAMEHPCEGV
UniProt Q99741: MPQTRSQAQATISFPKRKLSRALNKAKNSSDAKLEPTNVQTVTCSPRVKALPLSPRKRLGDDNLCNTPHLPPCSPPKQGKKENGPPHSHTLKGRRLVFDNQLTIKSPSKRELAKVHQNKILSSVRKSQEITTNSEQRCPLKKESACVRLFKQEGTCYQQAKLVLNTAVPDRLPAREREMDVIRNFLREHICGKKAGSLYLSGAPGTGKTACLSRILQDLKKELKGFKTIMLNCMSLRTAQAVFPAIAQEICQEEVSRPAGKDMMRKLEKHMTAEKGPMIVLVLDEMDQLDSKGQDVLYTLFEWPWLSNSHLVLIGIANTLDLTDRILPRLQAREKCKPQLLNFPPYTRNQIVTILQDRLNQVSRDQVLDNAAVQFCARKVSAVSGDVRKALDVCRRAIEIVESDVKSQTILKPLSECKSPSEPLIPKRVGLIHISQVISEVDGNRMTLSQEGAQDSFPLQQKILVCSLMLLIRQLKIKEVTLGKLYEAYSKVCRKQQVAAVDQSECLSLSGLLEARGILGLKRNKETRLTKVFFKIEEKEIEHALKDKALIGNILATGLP
UniProt Q6NVV7: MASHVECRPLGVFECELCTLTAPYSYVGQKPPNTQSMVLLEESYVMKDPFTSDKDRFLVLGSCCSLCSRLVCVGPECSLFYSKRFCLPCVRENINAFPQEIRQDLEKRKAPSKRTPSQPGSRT
UniProt Q9H211: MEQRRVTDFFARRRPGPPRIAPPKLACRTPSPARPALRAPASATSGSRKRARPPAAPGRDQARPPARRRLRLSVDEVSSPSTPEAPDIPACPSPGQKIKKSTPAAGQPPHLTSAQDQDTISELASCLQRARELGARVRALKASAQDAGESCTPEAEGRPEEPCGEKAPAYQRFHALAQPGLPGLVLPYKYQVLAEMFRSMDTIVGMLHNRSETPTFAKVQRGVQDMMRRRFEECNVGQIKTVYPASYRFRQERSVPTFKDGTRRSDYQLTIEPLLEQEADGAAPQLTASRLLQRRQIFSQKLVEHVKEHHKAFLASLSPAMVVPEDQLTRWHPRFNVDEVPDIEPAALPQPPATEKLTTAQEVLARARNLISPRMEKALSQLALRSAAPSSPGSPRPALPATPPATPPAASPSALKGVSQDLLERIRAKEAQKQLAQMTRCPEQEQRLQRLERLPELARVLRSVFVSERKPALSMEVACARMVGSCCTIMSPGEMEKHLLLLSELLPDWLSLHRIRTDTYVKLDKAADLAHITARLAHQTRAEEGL
UniProt Q6ZU80: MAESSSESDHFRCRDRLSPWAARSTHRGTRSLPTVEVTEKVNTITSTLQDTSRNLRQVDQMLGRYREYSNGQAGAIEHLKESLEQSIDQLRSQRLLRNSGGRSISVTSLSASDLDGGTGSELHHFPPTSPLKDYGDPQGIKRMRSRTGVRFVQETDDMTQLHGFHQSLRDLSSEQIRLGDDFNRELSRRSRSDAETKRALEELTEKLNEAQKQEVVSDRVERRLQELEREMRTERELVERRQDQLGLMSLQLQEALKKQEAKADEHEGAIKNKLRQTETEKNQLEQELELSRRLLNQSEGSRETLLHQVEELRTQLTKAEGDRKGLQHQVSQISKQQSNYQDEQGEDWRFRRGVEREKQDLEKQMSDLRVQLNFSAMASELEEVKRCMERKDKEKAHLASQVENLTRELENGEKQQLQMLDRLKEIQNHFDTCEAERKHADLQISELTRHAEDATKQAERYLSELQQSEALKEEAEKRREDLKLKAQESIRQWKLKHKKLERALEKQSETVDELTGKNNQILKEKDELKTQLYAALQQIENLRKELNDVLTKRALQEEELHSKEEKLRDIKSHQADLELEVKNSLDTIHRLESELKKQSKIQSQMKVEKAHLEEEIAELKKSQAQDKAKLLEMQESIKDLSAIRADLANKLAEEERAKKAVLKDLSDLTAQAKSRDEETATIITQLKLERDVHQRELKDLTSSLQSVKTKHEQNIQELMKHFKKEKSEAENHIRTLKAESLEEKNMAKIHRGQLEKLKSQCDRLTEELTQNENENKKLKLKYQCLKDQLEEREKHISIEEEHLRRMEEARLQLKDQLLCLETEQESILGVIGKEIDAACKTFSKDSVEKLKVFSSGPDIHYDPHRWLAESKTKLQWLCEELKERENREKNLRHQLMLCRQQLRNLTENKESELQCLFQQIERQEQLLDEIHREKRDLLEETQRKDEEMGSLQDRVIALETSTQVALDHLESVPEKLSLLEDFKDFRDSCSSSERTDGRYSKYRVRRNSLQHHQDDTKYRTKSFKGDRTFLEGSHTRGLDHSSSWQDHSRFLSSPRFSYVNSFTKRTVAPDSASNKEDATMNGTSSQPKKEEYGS
UniProt Q53HL2: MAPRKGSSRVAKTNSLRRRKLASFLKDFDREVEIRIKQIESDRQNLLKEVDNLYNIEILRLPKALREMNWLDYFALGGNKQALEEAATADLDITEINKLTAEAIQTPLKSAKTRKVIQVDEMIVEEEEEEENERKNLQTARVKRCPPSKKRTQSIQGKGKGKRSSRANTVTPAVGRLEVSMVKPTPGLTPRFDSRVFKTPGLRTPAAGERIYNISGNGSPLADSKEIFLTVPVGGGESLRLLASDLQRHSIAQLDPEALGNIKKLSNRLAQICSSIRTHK
UniProt Q9UIB8: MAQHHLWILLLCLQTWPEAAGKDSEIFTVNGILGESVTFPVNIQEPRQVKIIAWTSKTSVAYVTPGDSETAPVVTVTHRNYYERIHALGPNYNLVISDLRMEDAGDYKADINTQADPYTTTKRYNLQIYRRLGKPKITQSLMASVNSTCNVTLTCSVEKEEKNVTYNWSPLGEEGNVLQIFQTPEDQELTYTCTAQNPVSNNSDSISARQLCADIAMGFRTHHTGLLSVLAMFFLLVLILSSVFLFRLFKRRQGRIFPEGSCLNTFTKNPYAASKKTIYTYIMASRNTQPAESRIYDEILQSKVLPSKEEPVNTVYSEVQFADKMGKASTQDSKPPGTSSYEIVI
UniProt O43822: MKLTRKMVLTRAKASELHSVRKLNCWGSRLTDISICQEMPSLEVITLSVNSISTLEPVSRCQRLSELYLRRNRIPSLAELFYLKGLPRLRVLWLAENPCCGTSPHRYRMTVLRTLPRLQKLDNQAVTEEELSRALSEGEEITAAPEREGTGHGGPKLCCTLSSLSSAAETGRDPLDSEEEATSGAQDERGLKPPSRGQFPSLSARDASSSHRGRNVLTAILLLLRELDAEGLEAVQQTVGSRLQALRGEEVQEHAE
UniProt Q9BWV3: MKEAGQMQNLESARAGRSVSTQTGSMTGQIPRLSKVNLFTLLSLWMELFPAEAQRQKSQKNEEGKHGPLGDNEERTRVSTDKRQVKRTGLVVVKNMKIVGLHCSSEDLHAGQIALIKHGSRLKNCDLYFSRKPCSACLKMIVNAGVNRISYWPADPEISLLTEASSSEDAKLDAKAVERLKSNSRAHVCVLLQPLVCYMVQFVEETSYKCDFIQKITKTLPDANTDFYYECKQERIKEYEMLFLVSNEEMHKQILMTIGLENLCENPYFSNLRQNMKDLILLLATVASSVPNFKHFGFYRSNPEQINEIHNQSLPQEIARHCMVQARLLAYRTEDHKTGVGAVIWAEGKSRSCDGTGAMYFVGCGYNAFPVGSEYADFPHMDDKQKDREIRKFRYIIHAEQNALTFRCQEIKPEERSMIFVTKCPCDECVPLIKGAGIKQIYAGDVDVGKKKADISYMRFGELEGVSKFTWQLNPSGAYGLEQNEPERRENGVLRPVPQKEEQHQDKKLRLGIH
UniProt O14613: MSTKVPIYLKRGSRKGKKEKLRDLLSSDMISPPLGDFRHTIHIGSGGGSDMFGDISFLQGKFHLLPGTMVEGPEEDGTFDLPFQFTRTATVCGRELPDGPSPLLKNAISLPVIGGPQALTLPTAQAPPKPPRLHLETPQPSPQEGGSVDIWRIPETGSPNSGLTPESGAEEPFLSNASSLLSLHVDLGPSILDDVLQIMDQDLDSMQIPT

How the values were obtained:
Assay in all cases: log2 fold change, soluble protein after heating vs DMSO (PISA); higher = thermal stabilisation; K562 lysate, 10 uM; active = over 0.2 and 3.5 SD of the protein, either way, in both replicates (recomputed)
tozasertib = compound: Cc1cc(Nc2cc(N3CCN(C)CC3)nc(Sc3ccc(NC(=O)C4CC4)cc3)n2)n[nH]1 [tozasertib]
Summary of the method: (§1)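 Log-two fold change in thermal stability relative to solvent controls is reported from duplicates. For each sample, crude K562 extract from dounce-homogenised pellets in PBS pH 7.4 with 1 mM MgCl2, at 1 mg/mL protein, was treated with 10 μM compound for 30 min. Aliquots heated for 3 min across 48°C-58°C were pooled, brought to 0.5% NP-40 at 4°C and cleared at 21,000xg for 90 min. The supernatant was quantified by TMTpro 16plex LC-MS/MS with channel sums equalised.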

crizotinib = compound: C[C@@H](Oc1cc(-c2cnn(C3CCNCC3)c2)cnc1N)c1c(Cl)ccc(F)c1Cl [crizotinib]
Summary of the method: as §1

doramapimod = compound: Cc1ccc(-n2nc(C(C)(C)C)cc2NC(=O)Nc2ccc(OCCN3CCOCC3)c3ccccc23)cc1 [doramapimod]
Summary of the method: as §1

quisinostat = compound: Cn1cc(CNCC2CCN(c3ncc(C(=O)NO)cn3)CC2)c2ccccc21 [quisinostat]
Summary of the method: as §1

[1] = compound: NC(=O)Nc1cc(-c2cccc(F)c2)sc1C(=O)N[C@H]1CCCNC1
Summary of the method: as §1

duvelisib = compound: C[C@H](Nc1ncnc2nc[nH]c12)c1cc2cccc(Cl)c2c(=O)n1-c1ccccc1 [duvelisib]
Summary of the method: as §1

dasatinib = compound: Cc1nc(Nc2ncc(C(=O)Nc3c(C)cccc3Cl)s2)cc(N2CCN(CCO)CC2)n1 [dasatinib]
Summary of the method: as §1

[2] = compound: Cn1cc(-c2ccc3c(c2)CCN3C(=O)Cc2cccc(C(F)(F)F)c2)c2c(N)ncnc21
Summary of the method: as §1

[3] = compound: NC1(c2ccc(-c3nc4ccn5c(=O)[nH]nc5c4cc3-c3ccccc3)cc2)CCC1
Summary of the method: as §1

nilotinib = compound: Cc1cn(-c2cc(NC(=O)c3ccc(C)c(Nc4nccc(-c5cccnc5)n4)c3)cc(C(F)(F)F)c2)cn1 [nilotinib]
Summary of the method: as §1

[4] = compound: Cc1nc(Nc2n[nH]c3c2CN(C(=O)N[C@H](CN(C)C)c2ccccc2)C3(C)C)c2sccc2n1
Summary of the method: as §1

[5] = compound: Cc1ncc(-c2ccnc(Nc3ccc(S(C)(=O)=O)cc3)n2)n1C(C)C
Summary of the method: as §1

tipifarnib = compound: Cn1cncc1[C@@](N)(c1ccc(Cl)cc1)c1ccc2c(c1)c(-c1cccc(Cl)c1)cc(=O)n2C [tipifarnib]
Summary of the method: as §1

pictilisib = compound: CS(=O)(=O)N1CCN(Cc2cc3nc(-c4cccc5[nH]ncc45)nc(N4CCOCC4)c3s2)CC1 [pictilisib]
Summary of the method: as §1

[6] = compound: C[C@H](C1=CC=C(C=C1)C(=O)NC2=C3C=CNC3=NC=C2)N
Summary of the method: as §1

gandotinib = compound: Cc1cc(Nc2cc(CN3CCOCC3)c3nc(C)c(Cc4ccc(Cl)cc4F)n3n2)n[nH]1 [gandotinib]
Summary of the method: as §1

bafetinib = compound: Cc1ccc(NC(=O)c2ccc(CN3CC[C@H](N(C)C)C3)c(C(F)(F)F)c2)cc1Nc1nccc(-c2cncnc2)n1 [bafetinib]
Summary of the method: as §1

[7] = compound: Cc1cccc(CC(=O)N2CCc3c2ccc(-c2cn(C)c4ncnc(N)c24)c3F)n1
Summary of the method: as §1

Measured: log2 fold change

CENPB (UniProt P07199)
inactive: tozasertib 0.201

CENPX (UniProt A8MT69)
inactive: crizotinib 0.054 | doramapimod -0.082 | quisinostat -0.064 | [1] 0.12

CEP68 (UniProt Q76N32)
inactive: duvelisib 0.047 | tozasertib -0.03 | dasatinib 0.1 | [2] -0.086 | [3] -0.027

CDC6 (UniProt Q99741)
inactive: crizotinib 0.053 | duvelisib -0.084 | doramapimod 0.239 | nilotinib -0.014 | [4] 0.011 | dasatinib 0.075 | [5] -0.015 | [2] -0.136 | quisinostat 0.382 | tipifarnib -0.024 | [1] -0.091 | [3] -0.107

CDPF1 (UniProt Q6NVV7)
inactive: crizotinib 0.047 | doramapimod 0.05 | quisinostat -0.079 | [1] 0

CDT1 (UniProt Q9H211)
inactive: pictilisib -0.01 | crizotinib -0.079 | [6] -0.086 | duvelisib 0.035 | gandotinib -0.043 | tozasertib -0.067 | doramapimod -0.016 | bafetinib 0.116 | [7] 0.042 | dasatinib 0.036 | [2] -0.034 | quisinostat 0.013 | [1] 0.034 | [3] 0.058

CEP128 (UniProt Q6ZU80)
active: [6] -1.2
inactive: pictilisib -0.123 | duvelisib -0.022 | gandotinib 0.331 | tozasertib 0.027 | bafetinib -0.043 | [7] 0.297 | dasatinib -0.168 | [2] 0.041

CDCA8 (UniProt Q53HL2)
inactive: pictilisib 0.072 | [6] 0.319 | duvelisib 0.031 | gandotinib -0.031 | tozasertib -0.047 | bafetinib -0.217 | [7] -0.128 | nilotinib 0.03 | [4] -0.002 | dasatinib 0.012 | [5] -0.277 | [2] -0.011 | tipifarnib 0.046 | [3] -0.051

CD84 (UniProt Q9UIB8)
inactive: pictilisib -0.034 | [6] 0.095 | gandotinib -0.01 | bafetinib 0.006 | [7] 0.012

CFAP410 (UniProt O43822)
inactive: pictilisib -0.045 | crizotinib -0.095 | tozasertib 0.01 | doramapimod 0.082 | bafetinib -0.027 | nilotinib -0.1 | [4] 0.033 | [5] -0.143 | quisinostat -0.105 | tipifarnib -0.138 | [1] 0.082 | [3] 0.04

CDADC1 (UniProt Q9BWV3)
inactive: crizotinib 0.01 | doramapimod 0.087 | quisinostat -0.007 | [1] -0.021

CDAN1 (UniProt H3BPZ6)
inactive: crizotinib 0.118 | doramapimod 0.059 | quisinostat 0.093 | [1] 0.056

CDC42EP2 (UniProt O14613)
inactive: crizotinib -0.023 | doramapimod -0.072 | quisinostat 0.035 | [1] 0.036
